Values quoted from earlier work, collected in patent US20220331292A1, “COMPOSITIONS AND METHODS FOR DELIVERY OF PSILOCIN AND PRODRUGS THEREOF” (priority 2021, published 2022).
For some of these results: For at least one compound, name, drawing or mass did not settle the structure. Some results were stated once for a whole list of compounds, not compound by compound.

What was measured:
[1] = for time of maximum levels in the blood / time to reach the human blood plasma: after oral administration
glutamate = details: 0.17 mg/kg

Compound | time of maximum levels in the blood [1] | time to reach the human blood plasma [1] | share excreted in the urine, mostly conjugated with glucoronic acid [1] | alterations in brain glutamate (glutamate)
CN(C)CCc1c[nH]c2cccc(O)c12 [Psilocin, psilocin] | 80 to 105 min | 20 to 40 min | 3-10% | 
CN(C)CCc1c[nH]c2cccc(OP(=O)(O)O)c12 [Psilocybin, psilocybin] | 80 to 105 min | 20 to 40 min | 3-10% | region-dependent alterations in glutamate
